Source: PubChem BioAssay AID1671190 (National Center for Advancing Translational Sciences (NCATS), 2021)
Several values for one entry are separate records, joined by “and”; a condition that tells them apart may be missing. Equal entries are not always repeated. In all, about 580,000 compounds went through this assay and about 6,100 (1.1%) were called active. Inconclusive results, whose numbers are uncertain, are shown with a selection of clear calls. Calls come from the whole dose curve; as a rule, active = well fitted inhibition curve with a large enough effect; inconclusive = small, poorly fitted or top-dose-only effect, or another doubt; inactive = no such curve, though single readings can be large or run the other way. A potency beside an inconclusive call is a rough fit, not a confirmed value.

By UniProt entry, the sequences of proteins in these tests, tags left out.
UniProt P18054, whole entry, looked up: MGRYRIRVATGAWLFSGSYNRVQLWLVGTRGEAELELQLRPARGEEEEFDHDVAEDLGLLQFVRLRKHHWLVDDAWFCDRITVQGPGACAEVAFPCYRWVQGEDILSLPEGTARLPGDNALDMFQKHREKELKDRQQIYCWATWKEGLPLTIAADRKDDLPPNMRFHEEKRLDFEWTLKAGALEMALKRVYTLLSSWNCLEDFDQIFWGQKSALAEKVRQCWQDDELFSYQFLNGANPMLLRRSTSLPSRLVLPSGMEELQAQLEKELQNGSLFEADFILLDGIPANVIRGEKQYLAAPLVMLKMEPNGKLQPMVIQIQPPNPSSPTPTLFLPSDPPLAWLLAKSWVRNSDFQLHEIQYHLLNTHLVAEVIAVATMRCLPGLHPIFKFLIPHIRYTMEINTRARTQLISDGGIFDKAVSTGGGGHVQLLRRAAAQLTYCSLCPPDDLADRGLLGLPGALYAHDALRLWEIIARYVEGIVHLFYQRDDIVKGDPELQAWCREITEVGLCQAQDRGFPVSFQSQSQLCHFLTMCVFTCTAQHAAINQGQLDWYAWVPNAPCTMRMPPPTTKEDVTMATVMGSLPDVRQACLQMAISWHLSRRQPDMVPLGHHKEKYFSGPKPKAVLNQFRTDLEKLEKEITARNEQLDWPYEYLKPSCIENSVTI

Each molecule was assayed against Polyunsaturated fatty acid lipoxygenase ALOX12 (Homo sapiens) (UniProt P18054) (assay: Primary qHTS assay for inhibitors of human arachidonate 12S-lipoxygenase (ALOX12): Round 2). Conditions: purified 12hLO, xylenol orange hydroperoxide absorbance; activity change, negative = inhibition: at 108 µM (top of the series).
Summary of the method: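 Purified human 12hLO at 150 nM in 25 mM Hepes, 0.01% Triton X-100, pH 7.0, preincubated 15 min at room temperature with compound. Reaction started with 40 uM arachidonic acid, 30 min at room temperature. Hydroperoxide measured by Fe-xylenol orange, 573/405 nm absorbance ratio.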
% is set by controls: 0 for no effect and ±100 for the full control effect; potency is the fitted concentration of half-maximal effect.

**Q.** For `O=C1CC=C2C3CC4N(CCC45c4cc(O)c(O)cc4N1C25)CC3=CCBr` (stereo not given), which Potency is on record?
**A.** The Potency was inconclusive: 35.5 µM [inhibitor, partial curve].

**Q.** `O=[S+]1([O-])NC2(CCN(Cc3ccccc3)C2)COc2ccncc21` (stereo not given) was tested. Which activity change, negative = inhibition did it give?
**A.** Its activity change, negative = inhibition is inactive: 8.99% [at 6.33 µM].

**Q.** Which Potency does the source give for `COC(=O)c1ccc(COc2cc(C)cc3oc(=O)c4c(c23)CCCC4)o1` here?
**A.** The Potency was inconclusive: 56.2 µM [inhibitor, partial curve, poor fit].

**Q.** How did the Potency turn out when `C=C1C(=O)O[C@@H]2C[C@@H](C)[C@H]3C=CC(=O)[C@]3(O)C[C@@H]12` was run?
**A.** The Potency was “inactive”.

**Q.** `Cc1nc(-c2ccc(C(F)(F)F)cc2)cc([C@H]2CN3CC[C@H]2C[C@@H]3CNS(C)(=O)=O)n1` was tested. Which Potency did it give?
**A.** Its Potency is “inactive”.

**Q.** Which Potency does the source give for `CN(C)c1ccc(CN2CC=C(c3ccc(F)cc3)CC2)cc1` here?
**A.** Its Potency is inconclusive: 15.8 µM [inhibitor, full curve].

**Q.** Which Potency does the source give for `C=CCN1C(=O)NC(=O)/C(=C/c2ccc(OCC(=O)Nc3ccc(C)cc3)cc2)C1=O` here?
**A.** Its Potency is active: 39.8 µM.

**Q.** For `CN1CCC(N2C[C@@H]3C[C@H](C2)c2c(NC(=O)NC4CCCCC4)ccc(=O)n2C3)CC1`, which Potency is on record?
**A.** Its Potency is “inactive”.

**Q.** Which Potency does the source give for `CCOC(=O)c1c(-n2c(C)cc(/C=C3\C(=O)NC(=O)N(C)C3=O)c2C)sc2c1CCCC2` here?
**A.** Its Potency is inconclusive: 89.1 µM [inhibitor, partial curve, poor fit].

**Q.** Which Potency does the source give for `COc1ccc(OCC(=O)N2CCN(Cc3ccc(SC)cc3)CC2)cc1` here?
**A.** Its Potency is “inactive and inconclusive: 562 nM [inhibitor, full curve, poor fit]”.

**Q.** Which Potency does the source give for `COc1ccc(CN2Cc3cc(N4CCCCC4)ccc3-n3nncc3C2)cc1` here?
**A.** The Potency was inconclusive: 112 µM [inhibitor, single point].

**Q.** `Cc1ccc(C(=O)O)cc1N=Nc1c(O)[nH]c(=O)[nH]c1=O` was tested. Which Potency did it give?
**A.** Its Potency is inconclusive: 31.6 µM [inhibitor, partial curve].

**Q.** For `CCOC(=O)Cc1csc(NC(=O)c2c(O)c3ccccc3n(CCC(C)C)c2=O)n1`, which Potency is on record?
**A.** Its Potency is “inactive”.

**Q.** With `Cc1cccc(C(O)(C(=O)NNC(=O)CN2CCN(C)CC2)c2cccc(C)c2)c1` as the molecule, how does the Potency read?
**A.** The Potency was “inactive”.

**Q.** With `CCC(C)n1c(O)c(/C=N/N2CCOCC2)c(=O)[nH]c1=S` (stereo not given) as the molecule, how does the Potency read?
**A.** Its Potency is “inactive”.

**Q.** For `O=C1CC(c2ccccc2)[Se]C(c2ccccc2)C1` (stereo not given), which Potency is on record?
**A.** The Potency was inconclusive: 2.82 µM [inhibitor, full curve, poor fit].

**Q.** Which Potency does the source give for `C=CCN1C(=O)/C(=C/c2cc(C)n(-c3ccccn3)c2C)C(=O)NC1=S` here?
**A.** Its Potency is inconclusive: 25.1 µM [inhibitor, partial curve].

**Q.** For `O=C1NC(=O)N(c2ccc3c(c2)OCO3)C(=O)/C1=C/c1cccs1`, which Potency is on record?
**A.** Its Potency is inconclusive: 50.1 µM [inhibitor, partial curve, poor fit].

**Q.** With `CCCNC(=O)N1CC2CN(C(C)C)CC(C1)O2` as the molecule, how does the Potency read?
**A.** Its Potency is “inactive”.

**Q.** Which Potency does the source give for `CCC(=O)c1c(O)n(C2CCCCCC2)c(=O)[nH]c1=O` here?
**A.** Its Potency is inconclusive: 35.5 µM [inhibitor, partial curve, poor fit].

**Q.** For `N#Cc1c(/N=C/C2C(=O)NC(=S)NC2=O)sc2c1CCCC2`, which Potency is on record?
**A.** The Potency was inconclusive: 89.1 µM [inhibitor, partial curve, poor fit].

**Q.** `CC(C)(C)c1ccc(NC(=O)OC[C@H]2C[C@@H]3CCN2C[C@@H]3c2cc(C3CCCC3)nc(-c3ccncc3)n2)cc1` was tested. Which Potency did it give?
**A.** The Potency was inconclusive: 44.7 µM [inhibitor, partial curve].

**Q.** For `Cc1nc(-c2ccccc2Br)cc([C@H]2CN3CC[C@H]2C[C@@H]3CNC(=O)c2ccc(C(C)(C)C)cc2)n1`, which Potency is on record?
**A.** The Potency was inconclusive: 50.1 µM [inhibitor, partial curve].

**Q.** For `Cc1ccccc1NC(=O)c1cn(Cc2ccccc2)nn1`, which Potency is on record?
**A.** The Potency was inconclusive: 89.1 µM [inhibitor, single point].

**Q.** `COC(=O)C(O)C(O)(CCC(C)C)C(=O)OC1C(OC)=CC23CCCN2CCc2cc4c(cc2C13)OCO4` (stereo not given) was tested. Which Potency did it give?
**A.** The Potency was “inactive”.

**Q.** With `CNc1ccc2oc(C[C@H]3O[C@@]4(CC[C@H]3C)O[C@H]([C@H](C)C(=O)c3ccc[nH]3)[C@H](C)C[C@H]4C)nc2c1C(=O)O` as the molecule, how does the Potency read?
**A.** The Potency was “inactive and inconclusive: 44.7 µM [inhibitor, partial curve, poor fit]”.

**Q.** For `CCCCCCN=C(C)c1c(O)n(Cc2ccccc2)c(=O)[nH]c1=O`, which Potency is on record?
**A.** The Potency was inconclusive: 39.8 µM [inhibitor, partial curve, poor fit].

**Q.** How did the Potency turn out when `O=c1[nH]c(=O)n(Cc2ccccc2)c(O)c1/C=N/NCCO` was run?
**A.** The Potency was “inactive”.

**Q.** With `Cc1cc(C=C2C(=O)N(C)C(=S)N(C)C2=O)c(C)n1-c1cccnc1` as the molecule, how does the Potency read?
**A.** The Potency was inconclusive: 35.5 µM [inhibitor, partial curve, poor fit].

**Q.** `CC(C)C1c2cccn2-c2ccccc2CN1C(=O)Nc1ccccc1F` (stereo not given) was tested. Which Potency did it give?
**A.** The Potency was “inactive”.

**Q.** For `COc1ccc(CCN(C)Cc2ccc(F)cc2F)cc1OC`, which Potency is on record?
**A.** The Potency was inconclusive: 1 µM [inhibitor, full curve, poor fit].

**Q.** `CCCNC(=O)N1[C@H]2CC[C@@H]1c1cnc(-c3ccc(F)cc3)nc1C2` was tested. Which Potency did it give?
**A.** The Potency was inconclusive: 2.24 µM [inhibitor, full curve, poor fit].

**Q.** How did the Potency turn out when `COc1ccc2[nH]c(C)c(CCNCc3cccc(F)c3)c2c1` was run?
**A.** Its Potency is inconclusive: 0.501 µM [inhibitor, full curve, poor fit].

**Q.** With `Cc1ccccc1N1C(=O)NC(=O)/C(=C\c2cc(C)n(C)c2C)C1=O` as the molecule, how does the Potency read?
**A.** Its Potency is inconclusive: 50.1 µM [inhibitor, partial curve, poor fit].

**Q.** With `COC(=O)C1=C(c2ccc(-c3ccccc3)c(F)c2)C[C@@H]2CC[C@H]1N2C(=O)N1CCc2cc(OC)c(OC)cc2C1` as the molecule, how does the Potency read?
**A.** The Potency was “inactive”.

**Q.** How did the Potency turn out when `CC1(C)N(O)C2CCCCC2N1O` (stereo not given) was run?
**A.** The Potency was “inactive”.

**Q.** How did the Potency turn out when `CCOP(=S)(OCC)SCCSCC` was run?
**A.** The Potency was “inactive”.

**Q.** How did the Potency turn out when `O=C(c1cn[nH]c1-c1ccc(F)cc1)N1CCC2(CC1)OCCO2` was run?
**A.** Its Potency is “inactive”.

**Q.** For `COc1ccccc1N1CCN(Cc2ccc(Br)s2)CC1`, which Potency is on record?
**A.** Its Potency is inconclusive: 2.24 µM [inhibitor, full curve, poor fit].

**Q.** How did the Potency turn out when `CN1C(=O)NC(=O)/C(=C/c2ccc([N+](=O)[O-])o2)C1=O` was run?
**A.** The Potency was “inactive”.

**Q.** For `N#Cc1ccc(NC(=O)CSC2=Nc3ccccc3C3CC=NN23)cc1Cl` (stereo not given), which Potency is on record?
**A.** Its Potency is inconclusive: 35.5 µM [inhibitor, partial curve, poor fit].

**Q.** Which Potency does the source give for `CCCC(C)CC1(CCO)C(=O)NC(=S)NC1=O` (stereo not given) here?
**A.** Its Potency is inconclusive: 56.2 µM [inhibitor, partial curve, poor fit].

**Q.** Which Potency does the source give for `COc1cc(-c2c(C#N)c(N)nc3c2c(=O)nc2sccn23)ccc1OCc1ccccc1C` here?
**A.** The Potency was inconclusive: 3.55 µM [inhibitor, full curve, poor fit].

**Q.** `COc1ccc(-c2ccc3c(c2)CN(c2cccc(Cl)c2)Cc2cnnn2-3)cc1` was tested. Which Potency did it give?
**A.** The Potency was active: 17.8 µM.

**Q.** With `COC(=O)C1=C(c2ccc(OC)c(OC)c2)C[C@@H]2CC[C@H]1N2C(=O)NCc1cc(C)oc1C(F)(F)F` as the molecule, how does the Potency read?
**A.** Its Potency is inconclusive: 112 µM [inhibitor, single point].

**Q.** With `N#Cc1ccc(NC(=O)Cn2nc(C(=O)O)c3ccccc3c2=O)cc1Cl` as the molecule, how does the Potency read?
**A.** Its Potency is inconclusive: 35.5 µM [inhibitor, partial curve, poor fit].

**Q.** `O=C(O)C1Cc2ccccc2N2CCCC12` (stereo not given) was tested. Which Potency did it give?
**A.** The Potency was inconclusive: 35.5 µM [inhibitor, single point].

**Q.** With `O=C(c1cc2cc(Br)ccc2[nH]1)N1CCC2(CC1)OCCO2` as the molecule, how does the Potency read?
**A.** Its Potency is inconclusive: 39.8 µM [inhibitor, partial curve, poor fit].

**Q.** With `COc1cccc(N2C(=O)NC(=O)/C(=C/c3ccc([N+](=O)[O-])s3)C2=O)c1` as the molecule, how does the Potency read?
**A.** Its Potency is inconclusive: 35.5 µM [inhibitor, partial curve, poor fit].

**Q.** `CCOC(=O)c1c(C)n(Cc2ccc(F)cc2)c2ccc(O)cc12` was tested. Which Potency did it give?
**A.** The Potency was “inactive”.

**Q.** With `Cn1cc(C(=O)Cn2cnc3ccccc32)c2ccccc21` as the molecule, how does the Potency read?
**A.** The Potency was “inactive”.

**Q.** Which Potency does the source give for `O=C1C(=Cc2ccccc2)N2CCC1CC2` here?
**A.** Its Potency is “inactive”.

**Q.** For `COc1ccc(-n2c(/C=C/c3ccc4c(c3)OCO4)nc3ccccc3c2=O)cc1`, which Potency is on record?
**A.** Its Potency is inconclusive: 56.2 µM [inhibitor, partial curve, poor fit].

**Q.** With `O=[N+]([O-])c1ccnc(N2CC3CCC(C2)N3CC(F)(F)F)c1` as the molecule, how does the activity change, negative = inhibition read?
**A.** Its activity change, negative = inhibition is inactive: -5.61% [at 6.33 µM].

**Q.** For `CN(C)c1ccc(-[n+]2ccc(-c3cc[n+](-c4ccc(N(C)C)cc4)cc3)cc2)cc1`, which Potency is on record?
**A.** Its Potency is inconclusive: 50.1 µM [inhibitor, partial curve, poor fit].

**Q.** For `Cn1c[n+](C)cc1C(O)c1ccccc1` (stereo not given), which Potency is on record?
**A.** Its Potency is inconclusive: 1 µM [inhibitor, full curve] and inconclusive: 100 µM [inhibitor, single point].

**Q.** `N#C/C(N)=C(/N)C#N` was tested. Which Potency did it give?
**A.** The Potency was “inactive”.

**Q.** For `COc1ccc(NC(=O)NC[C@H]2C[C@@H]3CCN2C[C@@H]3c2cc(-c3ccccc3Br)nc(C)n2)cc1`, which Potency is on record?
**A.** The Potency was active: 35.5 µM.

**Q.** With `C[N+](C)(C)CC1CCCCC1=O` (stereo not given) as the molecule, how does the Potency read?
**A.** Its Potency is active: 12.6 µM.

**Q.** `O=S(=O)(c1cc(Cl)cc(Cl)c1)N1Cc2cc(-c3cccc(F)c3)ccc2-n2nncc2C1` was tested. Which Potency did it give?
**A.** The Potency was inconclusive: 31.6 µM [inhibitor, single point].

**Q.** `O=C(COc1ccc(Br)cc1)N1CCN(Cc2ccncc2)CC1` was tested. Which Potency did it give?
**A.** Its Potency is inconclusive: 0.224 µM [inhibitor, full curve, poor fit].

**Q.** How did the Potency turn out when `CSc1ccccc1C(=O)C1CCCN(Cc2cccc(C)n2)C1` (stereo not given) was run?
**A.** The Potency was “inactive”.

**Q.** `C#CC1(O)CCC2C3CCC4=C/C(=N/OCC(=O)NCC(=O)NC(C(=O)O)C(C)C)CC[C@]4(C)C3CC[C@@]21C` (stereo not given in full) was tested. Which Potency did it give?
**A.** Its Potency is inconclusive: 39.8 µM [inhibitor, partial curve, poor fit].

**Q.** With `Cc1c(C(=O)Cn2cnc3ccccc32)c2ccccc2n1C` as the molecule, how does the Potency read?
**A.** Its Potency is “inactive”.

**Q.** How did the Potency turn out when `COc1cc2c(cc1OC)[C@@H]1N(C)c3ccccc3[C@@]13CCN[C@H]3C2` was run?
**A.** The Potency was inconclusive: 39.8 µM [inhibitor, partial curve, poor fit].
